No constants are given. Whether binding was seen depends on the method and setting. Binding calls can cover weak binding; strength is not graded here.
B1: putative T4SS effector 19100 (ORF RS19100), putative lipase (protein, UniProt B2FUP9 1-494)
chain: MRPLTNAALANAAYSPPSHPAPGDKESLRVDGEDFEVLGRRDAVSGYQGVVYRNIKTNEIIIAHRGTEFDRQAMLDGGVDAAMVSARVNAQIDDALVLTKQAIKQAEENGYGPVYVTGHSLGGALAQITAYHYNLPGDAFNPYGAAGLAYRLPEGQPANAAPFTNHVMAGDLVSAAGPHYGKVEMYALPKELGVLRDAEQGQRIASLVSLGMKSGHVMSAAVAVQLGDSHRMVHFIDRMTDKGPVQSVLDDPGARITDAEDLRRIAEYRKDIHQLRLGATVLVGGGPGLLRDGVNYLLGTGEAGAYARREAEAVQHAESALKAGERPVQEATEKGSPSLSNPGFAPKSPLQESIESTLDKAGLDPRKEGHPDHALYRQIRDGVSAVDARHGRGFDETSERVTAGLLATAKRSGLERVDHVVLGNPPSDGSGPRMFVVQGALDNPAHLRASIAVSEAVNTPVDQSLAKVEQISQAQQVAQQEQTQEQTRTAMRMG
B2: putative T4SS effector 02400 (ORF RS02400), hypothetical protein (protein, UniProt B2FKX6 1-143)
chain: MGSPTTHRYRSMAMAEITPNHPDYGLNQQVRQGVAALDAQHGRAFDQTSERLTASLTVLAREQGLQQVDHVLVSNATAQHPAGHNVFVVQGDPANPAHLRAMMPTAVAAQTPVEQSMQKLGLGVQPQVEVQAHEMQHPAPRLG
B3: putative T4SS effector 14405 (ORF RS14405), hypothetical protein (protein, UniProt B2FJJ5 1-440)
chain: MSGLTERDLSVLGSYARDGNRELYWNYLSQLPGADGYGTLALGVVRNDSLPGRVANTYAQDYAKSQQEEGSRFPNAQLTERQWESFGQTLLERDLELRQQWMNERRPDLALNLPGKDVMLAHDRAFERHELDPNCWTPRVLLQAAEQKSGPAKLEQIWTNMLNNDYAGGPRVGNTSVDAISQMGWTKGGQYLTRLSVLEATQALEGRSAVDPNVIGGNSYYAMYFEADRKWASISAGGGHMSLREITDPSRIAELNDAREVRLERLEKRTQFHPDDPYRTITRSPLTAAVDDVADPSQAPTRLADIGPGHREYTLLQQVREGVAAIDASAGRTHDENSERLVASVMALARRNQLERADHVLLSAQTADAPAGRNVFVVQGEMTDPAHLRASMPTDIAVQTPVAQSLQQMKAVDLDRQQTAAQRQQEIDVQARENHAMRMG

Target: S. maltophilia VirD4, T4SS coupling protein (S. maltophilia K279a)
Experiment: two-hybrid; BACTH in E. coli BTH101: bait T18-VirD4 (high-copy pUT18C), prey T25-effector (low-copy pKT25); 0.5 mM IPTG, ~20 h at 30°C; β-galactosidase (ONPG) in Miller units; positive = at least four times the negative control

Row | Binder | binding
1 | B1 | binds
2 | B2 | binds
3 | B3 | binds

From article PMC11253643
